According to PubChem BioAssay AID1439 (NMMLSC, 2008):
Among all 220,000 compounds or so, about 770 (0.35%) were called active. Inconclusive means that the source gave no clear call. Such entries were picked first, then a sample of the others. Cut-off read from the data, not from the text of the source: active = binding response below about 49% or above about 150%; inconclusive = no clear call, values can overlap the other calls; inactive = in between.

Sequences of proteins named here, by UniProt entry; tags and fusion partners are left off.
UniProt P09471, whole entry, looked up: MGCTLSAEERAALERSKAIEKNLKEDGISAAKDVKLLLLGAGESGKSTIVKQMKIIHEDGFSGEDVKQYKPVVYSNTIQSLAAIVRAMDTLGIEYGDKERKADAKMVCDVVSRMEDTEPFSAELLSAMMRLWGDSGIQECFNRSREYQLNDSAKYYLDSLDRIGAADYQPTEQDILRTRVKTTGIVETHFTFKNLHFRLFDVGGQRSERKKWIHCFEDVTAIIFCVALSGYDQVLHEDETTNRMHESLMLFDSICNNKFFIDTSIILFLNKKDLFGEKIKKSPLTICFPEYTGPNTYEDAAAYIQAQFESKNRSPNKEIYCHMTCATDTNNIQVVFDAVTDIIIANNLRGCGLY

Target: Guanine nucleotide-binding protein G(o) subunit alpha (Homo sapiens) (UniProt P09471)
Experiment: RGS7-Galphao binding modulators, primary screen, biochemical, multiplexed bead flow cytometry (AID 1439);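 note: fluorescent Galphao held in activated GDP-AlF4 state binding bead-coupled RGS7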
Conditions: at 10 µM, actives lie on both sides

SMILES | binding response (% of control)
Cc1cc(C)n(-c2nc(SCC(=O)O)c3c4c(sc3n2)CCCC4)n1 | inconclusive: -82.7%
COC(=O)c1ccc(S(=O)(=O)N2CCCN(Cc3ccccc3)CC2)n1C | inconclusive: 130%
COC(=O)c1cc(=O)n(-c2ccc(C(F)(F)F)cc2)[nH]1 | inconclusive: 83.1%
O=C(Nc1ccc(N=Nc2ccccc2)c(NC(=O)C2CCCO2)c1)C1CCCO1 (stereo not given) | inactive: 102%
O=C(CNC(=O)c1ccc(F)cc1)Nc1ccccc1C(F)(F)F | inconclusive: 116%
CS(=O)(=O)c1sc(C(=O)NC(=S)Nc2ccc(OC(F)(F)F)cc2)c2c1C=CCC2 | inconclusive: 130%
CCCc1nc2oc3c(NCCOCCO)ncnc3c2c2c1COC(C)(C)C2 | active: 173% [activator]
Cc1cc(C)n(CCOc2ccc(Cl)cc2Cl)n1 | inactive: 94.9%
N/C(=N\OC(=O)c1cccs1)c1ccccc1 | inactive: 148%
C/C(=N\O)c1ccc(Cl)cc1Cl | inconclusive: 96.3%
Cc1oc(-c2ccc(Cl)cc2)nc1CSCC(=O)NCCCN1CCOCC1 | active: 164% [activator]
Cc1cc(OC2CCCCC2)nc(NCc2ccccc2)n1 | inconclusive: 105%
CC1(C)C2CCC1(CS(=O)(=O)Nc1cccc(S(N)(=O)=O)c1)C(=O)C2 (stereo not given) | inconclusive: -46.9%
COc1ccccc1N1C(=O)CC(N(O)c2ccccc2)C1=O (stereo not given) | inconclusive: 97.2%
CN=C1S/C(=C/c2cn(CC(=O)OC)c3ccccc23)C(=O)N1C | inconclusive: -31.3%
Fc1ccc(/C=N/Nc2nc(-c3cccnc3)nc3ccccc23)cc1 | inconclusive: 88.8%
O=C(NC(=S)N1CCCCCC1)C1CC1 | inactive: 101%
O=C(CN1CCCCCC1)NCc1ccccc1 | inconclusive: 88.9%
CN(CCC#N)C(=O)COc1ccc(Br)cc1Cl | inconclusive: 122%
O=C(NNC(=O)C1CC(c2cccs2)=NO1)NC1CCCCC1 (stereo not given) | inactive: 97.2%
O=C(NC1CC2CCCC(C1)N2Cc1cccs1)c1ccc([N+](=O)[O-])cc1 (stereo not given) | inconclusive: 82.7%
Cc1onc(-c2c(Cl)cccc2Cl)c1C(=O)ONC(=O)c1cc(C(F)(F)F)cc(C(F)(F)F)c1 | inconclusive: 120%
C=CCNC(=O)/C(C#N)=C/c1ccc(SC)cc1 | inconclusive: 112%

Some of the entries so far, field by field.
Cc1cc(C)n(-c2nc(SCC(=O)O)c3c4c(sc3n2)CCCC4)n1
  binding response (% of control): inconclusive: -82.7%
O=C(Nc1ccc(N=Nc2ccccc2)c(NC(=O)C2CCCO2)c1)C1CCCO1 (stereo not given)
  binding response (% of control): inactive: 102%
O=C(CNC(=O)c1ccc(F)cc1)Nc1ccccc1C(F)(F)F
  binding response (% of control): inconclusive: 116%
CCCc1nc2oc3c(NCCOCCO)ncnc3c2c2c1COC(C)(C)C2
  binding response (% of control): active: 173% [activator]

(list continues)

SMILES | binding response (% of control)
Cc1ccc(S(=O)(=O)Nc2nc(C)c(C(=O)N/N=C/c3ccccc3)s2)cc1 | inactive: 103%
COCCCNC(=O)C(=O)N/N=C/c1cc2c(cc1Br)OCO2 | inconclusive: 82.3%
CN(C)Cc1cc2ccccc2c2c1COC2 | inconclusive: 167%
CCN(c1ccccc1)S(=O)(=O)c1ccc(Cl)c(NC(=O)COC(=O)c2cc(O)c3ccccc3c2O)c1 | inconclusive: 83.5%
CN(NC(=O)c1ccccc1Cl)c1ncc(C(F)(F)F)cc1Cl | inconclusive: 66.4%
CC(=O)N/C(N)=N/c1nc(=O)c2ccccc2s1 | inconclusive: 91%
COc1ccc(NC(C)=O)cc1NC(=O)c1ccc(C#N)cc1 | inactive: 97.8%
NNC(=O)c1cccc(COCC(F)(F)C(F)F)c1 | inconclusive: 110%
Cc1ccc(S(=O)(=O)Nc2c(C)nn(C)c2C)cc1 | inactive: 83.7%
COC(=O)C1=NN(c2ccc(OC)cc2)C2C(=O)N(c3ccccc3OC)C(=O)C12 (stereo not given) | inconclusive: 98.2%
COC(=O)c1ccc(N2C(=O)CC(SCC(=O)Nc3ccc(OC)cc3)C2=O)cc1 (stereo not given) | inconclusive: 172%
CCOc1ccc(S(=O)(=O)NC(C)(C)C)cc1-c1nc2c(C(C)(C)C)nn(C)c2c(=O)[nH]1 | inactive: 101%
CN(NC(=O)c1ccccc1)c1ncc(C(F)(F)F)cc1Cl | inconclusive: 52.9%
CC(C)(C)c1ccc(Oc2ccc(N)cn2)cc1 | inconclusive: 104%
N#Cc1ccc(-c2csc(NC(=O)c3cc(-c4cccs4)nc4ccccc34)n2)cc1 | inconclusive: 60.3%
O=c1[nH]c2cc([N+](=O)[O-])c([N+](=O)[O-])cc2[nH]c1=O | inconclusive: 85.7%
COCCCNC(=S)N/N=C/c1ccc(O)cc1O | inconclusive: 107%
O=C(Nc1cccc(S(=O)(=O)c2cccc(NC(=O)c3ccco3)c2)c1)c1ccco1 | inconclusive: 99.2%
COc1ccc(-c2csc(N(Cc3ccco3)C(=O)c3cccs3)n2)cc1 | inconclusive: 86.2%
O=C(O)CSc1nc2c(c(C(F)(F)F)n1)CCc1ccccc1-2 | inconclusive: 118%
CC(=O)N1N=C(c2ccc(C)cc2)CC1c1ccc2c(c1)OCO2 (stereo not given) | inconclusive: 613%
CN1C(C(=O)NCc2ccc(OC(F)(F)F)cc2)CC2Cn3c(nc4cc5ccccc5cc43)C21 (stereo not given) | inconclusive: 71%
O=[N+]([O-])c1ccc2[nH]c(O)c(N=NC3CCS(=O)(=O)C3)c2c1 (stereo not given) | inconclusive: 110%

SMILES | binding response (% of control)
O=C(COC(=O)c1cncc(Br)c1)NCc1ccc(Cl)cc1 | inconclusive: 2.99%
O=C(NC1CCS(=O)(=O)C1)/C(=C\c1ccco1)NC(=O)c1ccccc1 (stereo not given) | inconclusive: 96.1%
O=C(Nc1ccc(S(=O)(=O)NC2=NCCCCC2)cc1)C1COc2ccccc2O1 (stereo not given) | inconclusive: 93.3%
O=C(O)CCN1c2ccccc2Sc2ccccc21 | inconclusive: -15%
Cc1nn(Cc2ccccc2)c(C)c1C(=O)OCC(=O)c1cc(C)n(C2CC2)c1C | inactive: 82.3%
CCOC(=O)c1sc(/S(C)=N\S(=O)(=O)c2cccc(Cl)c2)c2c1CCC=C2 (stereo not given) | inconclusive: 99%
CC(=O)c1ccc(N2CCN(C(=O)Nc3cccc(F)c3)CC2)cc1 | inconclusive: 78.1%
CCOC(=O)c1c(CSc2ccsc2)n(C)c2cc(Br)c(O)c(CN(C)C)c12 | inconclusive: 134%
COCCCNC(=S)N(Cc1ccccc1)Cc1ccc(F)cc1 | inconclusive: 121%
CCNc1nc(NCC)n2c(SCC(=O)Nc3ccccc3)nnc2n1 | inconclusive: 72.1%
Nc1ccc(-c2nc3cc([N+](=O)[O-])ccc3o2)cc1 | inconclusive: 50.8%
COC(=O)C1=C(C)NC2=C(C(=O)c3ccccc32)C1c1cccc(OC)c1 (stereo not given) | inconclusive: 98%
Cc1cc(C(=O)OCC(=O)c2ccc(Br)s2)c(C)o1 | inactive: 82.4%
Cn1nc(Cc2n[nH]c(=S)n2C)c2ccccc2c1=O | inconclusive: 90.6%
CC(/C=N/NC(=O)c1cc(-c2cccn2C)n[nH]1)=C\c1ccccc1 | inconclusive: 99.1%
O=C(O)COc1ccccc1/C=N/NC(=O)CN1CCN(Cc2ccc(Cl)cc2)CC1 | inconclusive: 102%
CCc1ccc(-n2c(SCC(=O)Nc3ccc(C(=O)O)cc3)nnc2-c2ccncc2)cc1 | inconclusive: 99.4%
Cc1ccc(-c2nc3sc(C#N)c(N)n3c(=O)c2C#N)cc1 | inactive: 97.1%
CCOC(=O)N1CCN(c2nc(N(c3ccccc3)c3ccccc3)nc(-n3ccnc3)n2)CC1 | inconclusive: 90.9%
Cc1occc1-c1nnc(-c2cc([N+](=O)[O-])cc([N+](=O)[O-])c2)o1 | inactive: 92.6%
COC(=O)C1=C(Nc2cc(Cl)cc(Cl)c2)CSC1 | inconclusive: 91.5%
CC1CC(N(C(=O)c2ccccc2Cl)c2ccccc2)c2ccccc2N1 (stereo not given) | inactive: 101%
COc1ccc(-n2nnnc2/C=C/Nc2cc(C(F)(F)F)ccc2OC)cc1 | inconclusive: 117%

SMILES | binding response (% of control)
CCOC(=O)C1CCCN(c2c(NCCc3cccc(C)c3)c(=O)c2=O)C1 (stereo not given) | inconclusive: 59.4%
Cc1cc(C(=O)NN)c(C)o1 | inconclusive: 102%
OCc1ncc(-c2ccccc2)s1 | inconclusive: 100%
COc1ccc(S(=O)(=O)Nc2nc3ccccc3nc2NCC2CCCO2)cc1 (stereo not given) | inconclusive: 98.5%
CC(=O)N1N=C(c2ccc(Cl)cc2)CC1c1ccco1 (stereo not given) | inconclusive: 102%
Cc1nc2c(O)cccc2cc1CO | inconclusive: 4.29%
Cc1ccc(C(=O)N/N=C\c2ccc(-c3ccc([N+](=O)[O-])cc3)o2)cn1 | inconclusive: 154%
Cc1ccc2nc(SC(C(=O)c3ccccc3)c3ccccc3)nc(C)c2c1 (stereo not given) | inactive: 101%
CC1c2ccsc2CCN1S(=O)(=O)c1cccs1 (stereo not given) | inconclusive: 114%
Cc1cc(C)c2nc(NC(=O)[C@@H](NC(=O)c3cccc(S(=O)(=O)N4CCOCC4)c3)C(C)C)sc2c1 | inactive: 98.6%
CC(=O)Nc1ccc(NS(=O)(=O)c2ccc(C)cc2)cc1[N+](=O)[O-] | inconclusive: 102%
CCN1CCc2c(C#N)c(N3CCOCC3)nc(NCc3ccccc3)c2C1 | inactive: 104%
Nc1c(C(=O)OCC(=O)NCc2ccccc2)[nH]c(=O)[nH]c1=O | inconclusive: 76.7%
COc1ccc(/C(C)=N/N=C(N)N)c(OC)c1 | inconclusive: -4.48%
Cn1ncc(Cl)c1C(=O)N1CCN(c2ncccn2)CC1 | inconclusive: 92.7%
O=C(CSc1nc2ccc(Nc3nc(N4CCCC4)nc(N4CCCC4)n3)cc2s1)NCc1ccco1 | inconclusive: 113%
CCCCNc1ccc(C(=O)O)cc1 | inconclusive: 106%
Cc1nccn1-c1c([N+](=O)[O-])c(=O)n(C)c2ccccc12 | inconclusive: 109%
COc1cc(C=O)ccc1Oc1nc(Nc2ccc(F)cc2F)nc(N2CCOCC2)n1 | inactive: 103%
O=C(CSC1=NNC(c2ccccn2)S1)Nc1ccc(C(F)(F)F)cc1 (stereo not given) | inconclusive: 104%
CN1CCN(c2ccc(Cl)cc2NC(=O)c2ccc([N+](=O)[O-])cc2)CC1 | inconclusive: 113%
